Data taken from doi:10.1101/701474.
These are yes or no findings as the source states them, for the method shown. Binding seen in cells or lysates may run through a third protein.

Amino acid sequences for entries named in this document (tags omitted). A change or cut given only in a name is not applied to a line headed by its entry. Chains listed by the source or under a name are the forms on record and can include a tag or linker.
UniProt P14635: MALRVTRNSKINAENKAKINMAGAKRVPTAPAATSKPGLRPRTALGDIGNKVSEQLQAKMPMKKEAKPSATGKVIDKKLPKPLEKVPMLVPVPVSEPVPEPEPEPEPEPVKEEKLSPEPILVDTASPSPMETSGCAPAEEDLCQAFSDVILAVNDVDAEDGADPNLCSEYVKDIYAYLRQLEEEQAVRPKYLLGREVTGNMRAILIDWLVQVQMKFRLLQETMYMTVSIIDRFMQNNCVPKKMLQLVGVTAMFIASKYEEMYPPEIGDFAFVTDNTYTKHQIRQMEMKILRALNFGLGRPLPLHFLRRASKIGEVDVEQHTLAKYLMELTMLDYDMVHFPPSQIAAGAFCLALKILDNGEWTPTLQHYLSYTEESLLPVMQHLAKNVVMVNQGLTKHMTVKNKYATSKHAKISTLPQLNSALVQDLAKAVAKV
UniProt Q9Y6D9: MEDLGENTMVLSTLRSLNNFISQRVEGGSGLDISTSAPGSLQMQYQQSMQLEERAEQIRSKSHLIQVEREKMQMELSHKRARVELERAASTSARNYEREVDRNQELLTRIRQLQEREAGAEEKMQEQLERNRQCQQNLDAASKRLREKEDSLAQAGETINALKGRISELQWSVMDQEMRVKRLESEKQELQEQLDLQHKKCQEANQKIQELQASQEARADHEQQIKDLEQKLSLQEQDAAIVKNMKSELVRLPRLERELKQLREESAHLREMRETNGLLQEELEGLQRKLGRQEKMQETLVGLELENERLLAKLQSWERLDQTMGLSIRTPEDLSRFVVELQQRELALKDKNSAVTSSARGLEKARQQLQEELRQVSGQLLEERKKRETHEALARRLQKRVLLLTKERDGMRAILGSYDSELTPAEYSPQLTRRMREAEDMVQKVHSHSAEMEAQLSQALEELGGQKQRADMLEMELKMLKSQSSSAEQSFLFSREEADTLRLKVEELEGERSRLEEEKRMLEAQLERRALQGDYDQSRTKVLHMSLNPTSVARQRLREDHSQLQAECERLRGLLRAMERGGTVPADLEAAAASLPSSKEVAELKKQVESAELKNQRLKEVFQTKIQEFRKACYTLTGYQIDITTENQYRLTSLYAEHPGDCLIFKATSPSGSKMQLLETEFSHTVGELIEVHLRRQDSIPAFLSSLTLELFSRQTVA
MAD1 E53/56K (RPE1 clones 7D2 and 8B12) (Q9Y6D9, form named): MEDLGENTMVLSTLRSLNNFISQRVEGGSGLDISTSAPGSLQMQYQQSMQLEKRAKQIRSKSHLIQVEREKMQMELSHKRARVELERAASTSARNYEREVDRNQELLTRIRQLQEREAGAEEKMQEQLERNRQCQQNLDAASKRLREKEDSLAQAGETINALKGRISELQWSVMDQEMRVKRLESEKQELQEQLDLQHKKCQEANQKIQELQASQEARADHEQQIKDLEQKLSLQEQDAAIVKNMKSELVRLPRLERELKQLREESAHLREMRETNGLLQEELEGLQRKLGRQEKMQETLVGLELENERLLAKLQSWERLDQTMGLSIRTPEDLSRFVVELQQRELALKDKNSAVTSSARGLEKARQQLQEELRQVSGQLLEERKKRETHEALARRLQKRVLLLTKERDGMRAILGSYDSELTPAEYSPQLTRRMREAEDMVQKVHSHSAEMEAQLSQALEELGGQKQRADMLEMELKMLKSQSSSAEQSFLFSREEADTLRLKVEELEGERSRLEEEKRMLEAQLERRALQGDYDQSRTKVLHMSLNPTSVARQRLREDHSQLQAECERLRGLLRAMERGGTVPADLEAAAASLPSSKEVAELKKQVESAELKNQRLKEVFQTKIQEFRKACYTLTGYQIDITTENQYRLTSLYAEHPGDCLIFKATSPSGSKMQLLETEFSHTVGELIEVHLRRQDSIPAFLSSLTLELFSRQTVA

Molecular target: Cyclin B1 (RPE Cyclin B1-Venus+/-:Ruby-MAD2+/- cells) (human (endogenous in RPE1)) (UniProt P14635)
Assay: co-IP

With “MAD1 E53/56K (RPE1 clones 7D2 and 8B12) (from UniProt Q9Y6D9 1-718)” the binding was “no binding”.
